Assay results as given in PMC11500311, “Binding of a single nitric oxide molecule is sufficient to disrupt DNA binding of the nitrosative stress regulator NsrR†” (Chemical Science, 2024).
Construct, isoform or probe ends are uncertain for at least one entry. For some assays here: A negative result means that nothing was seen under these conditions. For some assays here: Where a protein sequence is shown, tags need not be part of it.

Tests used:
[1] = biological target: T1, holo NsrR ([4Fe-4S] in each subunit) (Streptomyces coelicolor) (UniProt Q9L132); experiment: SPR; details: kinetic, bivalent analyte model, SPR: 10 mM HEPES, 150 mM NaCl, 0.05% polysorbate 20, pH 7.4, 25 C, anaerobic, recombinant protein, label: 5' biotin on captured ReDCaT_F strand (S1)
T1 sequence (looked up, limits assumed): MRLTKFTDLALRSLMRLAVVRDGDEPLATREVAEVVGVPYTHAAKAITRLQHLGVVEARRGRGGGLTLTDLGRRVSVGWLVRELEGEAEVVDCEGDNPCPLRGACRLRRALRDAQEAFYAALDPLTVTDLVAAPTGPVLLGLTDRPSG

[2] = biological target: apo NsrR (cluster-free) (Streptomyces coelicolor) (UniProt Q9L132); experiment: native MS; details: negligible DNA binding; native MS: 100 mM ammonium acetate pH 8 (30 C for nitrosylation); recombinant protein
[3] = biological target: hemi-apo NsrR (one [4Fe-4S] per dimer) (Streptomyces coelicolor) (UniProt Q9L132); experiment: native MS; details: estimated from first part of curve, main text ~40 uM; native MS: 100 mM ammonium acetate pH 8 (30 C for nitrosylation); recombinant protein
[4] = biological target: mono-nitrosylated holo NsrR (Streptomyces coelicolor) (UniProt Q9L132); experiment: native MS; details: NO from DEA NONOate, 30 C, mono-nitrosylated complex not observed; native MS: 100 mM ammonium acetate pH 8 (30 C for nitrosylation); recombinant protein

| Sequence | Kd ([1]; primary binding, ka 2.26e6 M-1 s-1, kd 57.93e-3 s-1) | Kd ([1]; secondary binding (further immobilised DNA)) | binding result [2] | Kd [3] | binding result [4] |
| --- | --- | --- | --- | --- | --- |
| GAAAACAAGCATCTGAGATCCCAGTTCGG / AAGAACTGGGATCTCAGATGCTTGTTTTCCCTACCCTACGTCCTCCTGC [hmpA2 29 bp SPR] | 25.6 nM | 281 nM |  |  |  |
| AACACGAATATCATCTACCAAT (double strand) [hmpA1 22 bp native MS] |  |  | no binding | 41 µM | no binding |
